Drawing on PMC8427838, this text covers binding for one molecule.

Results are given in words; binding and its absence hold for the method and conditions named. In cells and extracts the contact can be indirect. Binding can be weak; no strength is given. Sequences can lack the tags named with a protein.

The target in the test is GST-C-ERMAD-moesin (C-terminal ERMAD domain of moesin fused to GST) (human). Kind of test: pull-down; immobilised GST fusion proteins incubated with normalized whole-cell lysates of HEK-293 cells, rocking 3 h at 4 °C; western blot (anti-GFP or anti-Myc); only the target purified. A general note: A western blot detects proteins with antibodies after separation by electrophoresis.

B1: TMIGD1-Myc (protein, UniProt Q6UXZ0 30-262)
chain: VLTVNGKTENYILDTTPGSQASLICAVQNHTREEELLWYREEGRVDLKSGNKINSSSVCVSSISENDNGISFTCRLGRDQSVSVSVVLNVTFPPLLSGNDFQTVEEGSNVKLVCNVKANPQAQMMWYKNSSLLDLEKSRHQIQQTSESFQLSITKVEKPDNGTYSCIAKSSLKTESLDFHLIVKDKTVGVPIEPIIAACVVIFLTLCFGLIARRKKIMKLCMKDKDPHSETAL
Turning to B1, the binding result is given as “binds weakly”.
